Data reported in US20220160802A1, “METHODS AND COMPOSITIONS FOR PROMOTING HEALTH IN A SUBJECT” (COMMONWEALTH SCIENTIFIC AND INDUSTRIAL RESEARCH ORGANISATION, priority 2019, published 2022).

Assay: Untargeted LC-MS metabolite analysis of fermented and non-fermented broccoli puree
Conditions: fermented vs non-fermented broccoli puree

Row | Compound | FC
1 | Oc1ccccc1O [Catechol] | 4.0005
2 | COc1cc(-c2cc(=O)c3c(O)cc(OC4O[C@H](COC(=O)CC(=O)O)[C@@H](O)[C@H](O)[C@H]4O)cc3o2)ccc1O (stereo partly shown) [Chrysoeriol 7-O-6″-malonyl-glucoside] | 4.8949
3 | COc1cc(-c2cc(=O)c3c(O)c(OC)c(OC)cc3o2)ccc1O [Cirsilineol] | 2.6151
4 | O=C([O-])C(=O)OC(=O)C(=O)OCC1OC(Oc2cc3c(O)cc(O)cc3[o+]c2-c2ccc(O)c(O)c2)C(O)C(O)C1O (stereo not shown) [Cyanidin 3-O-6″-dioxalyl-glucoside] | 9.9207
5 | O=C(C=Cc1ccc(O)cc1)OC[C@H]1O[C@@H](Oc2cc3c(O)cc(O)cc3[o+]c2-c2ccc(O)c(O)c2)[C@H](O)[C@@H](O)[C@@H]1O [Cyanidin 3-O-6″-p-coumaroyl-glucoside] | 271.87
6 | Oc1cc(O)c2cc(O[C@@H]3OC[C@H](O)[C@H](O)[C@H]3O)c(-c3ccc(O)c(O)c3)[o+]c2c1 [Cyanidin 3-O-arabinoside] | 16.098
7 | C[C@@H]1O[C@@H](OC[C@H]2O[C@@H](Oc3cc4c(O)cc(O)cc4[o+]c3-c3ccc(O)c(O)c3)[C@H](O)[C@@H](O)[C@@H]2O)[C@H](O)[C@H](O)[C@H]1O [Cyanidin 3-O-rutinoside] | 361.03
8 | O=P(O)(O)OC[C@@H](O)[C@@H](O)c1cnc[nH]1 [D-erythro-imidazole-glycerol-phosphate] | 10.288
9 | O=C[C@H](O)[C@H](O)COP(=O)(O)O [D-erythrose 4-phosphate] | 3.7463
10 | COc1ccc(CC2COC(=O)C2Cc2ccc(OC)c(OC)c2)cc1OC (stereo not shown) [Dimethylmatairesinol] | 0.4348
11 | CC/C=C/CO [E-2-pentenol] | 3.5473
12 | CSCCCCCC/C=N/O [E-7-methylthioheptanaldoxime] | 2.2972
13 | O/N=C/Cc1ccccc1 [E-phenylacetaldoxime] | 2.1608
14 | O=c1oc2c(O)c(O[C@@H]3OC[C@H](O)[C@H](O)[C@H]3O)cc3c(=O)oc4c(O)c(O)cc1c4c23 [Ellagic acid arabinoside] | 42.956
15 | Oc1cc2c(cc1[C@@H]1OC[C@H]3[C@@H]1CO[C@@H]3c1ccc3c(c1)OCO3)OCO2 [Episesaminol] | 2.4077
16 | COc1cc(/C=C/C(=O)C(O)(C(=O)O)C(O)C(=O)O)ccc1O (stereo not shown) [Feruloyl tartaric acid] | 5.5489
17 | O=C(O)c1cc(O)c(O[C@@H]2O[C@H](CO)[C@@H](O)[C@H](O)[C@H]2O)c(O)c1 [Gallic acid 4-O-glucoside] | 2.515
18 | COc1ccc(-c2cc(=O)c3c(O)c(OC)c(OC)c(OC)c3o2)cc1 [Gardenin B] | 4.3888
19 | OCCc1ccc(OC2OC(CO)C(O)C(O)C2O)c(O)c1 (stereo not shown) [Hydroxytyrosol 4-O-glucoside] | 28.971
20 | COc1cc(-c2oc3cc(O[C@@H]4O[C@@H](C)[C@H](O)[C@@H](O)[C@H]4O)cc(O)c3c(=O)c2O[C@@H]2O[C@H](CO)[C@@H](O)[C@H](O)[C@H]2O)ccc1O [Isorhamnetin 3-O-glucoside 7-O-rhamnoside] | 0.1536
21 | COc1cc(-c2oc3cc(O)cc(O)c3c(=O)c2O)ccc1O [Isorhamnetin] | 2.2605
22 | COc1ccc(-c2oc3cc(O)cc(O)c3c(=O)c2O)cc1 [Kaempferide] | 0.1575
23 | C[C@@H]1O[C@@H](Oc2cc(O)c3c(=O)c(O[C@@H]4O[C@H](CO)[C@H](O)[C@H](O)[C@H]4O[C@@H]4O[C@@H](C)[C@H](O)[C@@H](O)[C@H]4O)c(-c4ccc(O)cc4)oc3c2)[C@H](O)[C@H](O)[C@H]1O [Kaempferol 3-O-2″-rhamnosyl-galactoside 7-O-rhamnoside] | 2.7008
24 | N[C@@H](CC1(C(=O)O)C=CC(O)C=C1)C(=O)O (stereo partly drawn) [L-arogenate] | 4.782
25 | N[C@@H](CC=O)C(=O)O [L-aspartate-semialdehyde] | 2.9298
26 | N[C@@H](CC(=O)O)C(=O)O [L-aspartate] | 3.5705

Row | Compound | FC
27 | N[C@@H](CCN[C@@H](CCN1CC[C@H]1C(=O)O)C(=O)O)C(=O)O [L-nicotianamine] | 0.3985
28 | N[C@@H](Cc1ccccc1)C(=O)O [L-phenylalanine] | 4.5585
29 | COc1cc(-c2[o+]c3cc(O)cc(O)c3cc2O[C@@H]2O[C@H](CO)[C@@H](O)[C@H](O)[C@H]2O)cc(OC)c1O [Malvidin 3-O-glucoside] | 0.4817
30 | COc1cc([C@H]2OC[C@@H]3C(c4cc(OC)c(O)c(OC)c4)OC[C@H]23)ccc1O (stereo partly shown) [Medioresinol] | 3.6131
31 | O=c1c(OC2OCC(O)C(O)C2O)c(-c2cc(O)c(O)c(O)c2)oc2cc(O)cc(O)c12 (stereo not shown) [Myricetin 3-O-arabinoside] | 2.3978
32 | CC(C)=CCNc1ncnc2c1ncn2[C@@H]1O[C@H](COP(=O)(O)O)[C@@H](O)[C@H]1O [N6-delta2-isopentenyl-adenosine 5′-monophosphate] | 44.241
33 | CC(=O)N[C@H]1C(OP(=O)(O)O)O[C@H](COP(=O)(O)O)[C@@H](O)[C@@H]1O (stereo partly drawn) [N-acetyl-D-glucosamine 1,6-bisphosphate] | 40.636
34 | COc1cc(/C=C/C(=O)NCCc2ccc(O)cc2)ccc1O [N-feruloyltyramine] | 3.3648
35 | O=C(O)[C@H](Cc1ccccc1)NO [N-hydroxy-L-phenylalanine] | 0.1141
36 | CSCCC[C@H](NO)C(=O)O [N-hydroxyhomomethionine] | 12.902
37 | CSCCCCCCCC(NO)C(=O)O (stereo not shown) [N-hydroxypentahomomethionine] | 16.92
38 | CNCCOP(=O)(O)O [N-methylethanolamine phosphate] | 10.038
39 | CNCCO [N-monomethylethanolamine] | 2.7546
40 | COc1cc(-c2[o+]c3cc(O)cc(O)c3cc2OC2OC(C)C(O)C(O)C2O)cc(O)c1O (stereo not shown) [Petunidin 3-O-rhamnoside] | 6.0484
41 | Oc1ccccc1 [Phenol] | 4.4651
42 | Oc1cc(O)cc(/C=C/c2ccccc2)c1 [Pinosylvin] | 0.2691
43 | CC(=O)OC[C@H]1OC(Oc2c(-c3ccc(O)c(O)c3)oc3cc(OC4O[C@@H](C)[C@H](O)[C@@H](O)[C@H]4O)cc(O)c3c2=O)[C@H](O)[C@@H](O)[C@H]1O (stereo partly shown) [Quercetin 3-O-6″-acetyl-galactoside 7-O-rhamnoside] | 2.9914
44 | CCC(C)(O)[C@@H](O)C(=O)O (stereo partly shown) [R-2,3-dihydroxy-3-methylpentanoate] | 2.995
45 | CC(C)(COP(=O)(O)O)[C@@H](O)C(=O)NCCC(=O)N[C@@H](CS)C(=O)O [R-4′-phosphopantothenoyl-L-cysteine] | 4.8855
46 | C[C@@](O)(CCOP(=O)(O)O)CC(=O)O [R-mevalonate 5-phosphate] | 0.3489
47 | CC(C)(CO)[C@@H](O)C(=O)NCCC(=O)O [R-pantothenate] | 0.1072
48 | O=C(O)C1=N[C@H](C(=O)O)CCC1 [S-2,3,4,5-tetrahydrodipicolinate] | 4.1401
49 | N#C[C@@H](O)c1ccc(O)cc1 [S-4-hydroxymandelonitrile] | 0.3287
50 | C[S+](CCCN)C[C@H]1O[C@@H](n2cnc3c(N)ncnc32)[C@H](O)[C@@H]1O (stereo partly shown) [S-adenosyl 3-methylthiopropylamine] | 14.564
51 | C[S+](CC[C@H](N)C(=O)[O-])C[C@H]1O[C@@H](n2cnc3c(N)ncnc32)[C@H](O)[C@@H]1O (stereo partly drawn) [S-adenosyl-L-methionine] | 7.3817
52 | COc1ccc(C[C@H]2c3cc(OC)c(OC)cc3CCN2C)cc1O [S-laudanine] | 2.8697

Row | Compound | FC
53 | C[C@@H](C=O)C(=O)O [S-methylmalonate-semialdehyde] | 2.5477
54 | COc1ccc(C[C@@H]2NCCc3cc(OC)c(O)cc32)cc1O [S-norreticuline] | 32.883
55 | CC[C@H](CC[C@@H](C)[C@H]1CC[C@H]2[C@@H]3CC[C@H]4C[C@@H](OC(=O)/C=C/c5ccc(O)c(OC)c5)CC[C@]4(C)[C@H]3CC[C@]12C)C(C)C [Stigmastanol ferulate] | 0.2817
56 | Nc1ccc(S(=O)(=O)Nc2ccc(Cl)nn2)cc1 [Sulfachloropyridazine] | 4.1627
57 | COc1cc(NS(=O)(=O)c2ccc(N)cc2)nc(OC)n1 [Sulfadimethoxine] | 11.488
58 | O=c1ccn([C@@H]2O[C@H](COP(=O)(O)OP(=O)(O)O[C@H]3OC[C@@H](O)[C@H](O)[C@H]3O)[C@@H](O)[C@H]2O)c(=O)[nH]1 [UDP-alpha-D-xylose] | 13.367
59 | N[C@@H](CCC(=O)N[C@@H](CS/C(Cc1ccccc1)=N\O)C(=O)NCC(=O)O)C(=O)O [Z-1-glutathione-S-yl-2-phenyl-acetohydroximate] | 19.906
60 | Nc1ncnc2nc[nH]c12 [adenine] | 2.0623
61 | NC(=O)NC(NC(N)=O)C(=O)O [allantoate] | 10.972
62 | O=C(O)[C@H]1O[C@H](OP(=O)(O)O)[C@H](O)[C@@H](O)[C@H]1O [alpha-D-galacturonate 1-phosphate] | 11.846
63 | Nc1ccccc1C(=O)[O-].[Na+] [anthranilate] | 3.0289
64 | O=C1O[C@@H]2[C@@H](O)CO[C@]2(O)C1(O)Cc1c[nH]c2ccccc12 (stereo partly shown) [ascorbigen] | 3.7819
65 | O=C(O)c1ccccc1 [benzoate] | 5.4402
66 | C[N+](C)(C)CC=O [betaine aldehyde] | 3.5234
67 | CCCC=O [butan-1-al] | 2.0853
68 | c1ccc2c(-c3nccs3)c[nH]c2c1 [camalexin] | 0.2758
69 | NC(=O)OP(=O)(O)O [carbamoyl phosphate] | 7.7098
70 | CC1=CC(O/C=C(C)\C=C\C2=C(C)CCCC2(C)C)OC1=O (stereo not shown) [carlactone] | 0.05293
71 | CC(C)CCC[C@@H](C)[C@H]1CC[C@H]2[C@@H]3CC=C4C[C@@H](O)CC[C@]4(C)[C@H]3CC[C@]12C [cholesterol] | 2.816
72 | O=C(O)/C=C(/CC(=O)O)C(=O)O [cis-aconitate] | 0.1833
73 | COc1cc(/C=C/C=O)ccc1O[C@@H]1O[C@H](CO)[C@@H](O)[C@H](O)[C@H]1O [coniferaldehyde glucoside] | 7.1826
74 | COc1cc(/C=C/C=O)ccc1O [coniferaldehyde] | 6.6643
75 | COc1cc(/C=C/CO)ccc1O [coniferyl alcohol] | 0.3782
76 | OC[C@H]1O[C@@H](Oc2cc3c(O)cc(O)cc3[o+]c2-c2ccc(O)c(O)c2)[C@H](O)[C@@H](O)[C@@H]1O [cyanidin-3-O-beta-D-glucoside] | 2.0686
